Measured values reported in the supplement of paper PMC4604168 (melanoma cell lines).
Some of the results follow. Repeats are few or missing, and single values can be far off.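 Cells were imaged in 1,536-well plates, and nuclei stained with an antibody against cleaved PARP were counted against all DNA-stained nuclei to give the apoptosis fraction. Screening doses were chosen to leave most cells alive, and resting and induced cleaved-PARP levels differ strongly between cell lines.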

What was measured:
Test in all cases: cleaved PARP positive nuclei fraction relative to DMSO control; melanoma cells; higher = more apoptosis
Details in all cases: library dose: low library concentration; 72 h
501Mel = tested on: 501Mel
A101D = tested on: A101D
A2058 = tested on: A2058
A375 = tested on: A375
C32 = tested on: C32
CBRC008 = tested on: CBRC008 (line from a melanoma biopsy)
CBRC014 = tested on: CBRC014 (line from a melanoma biopsy)
CBRC016 = tested on: CBRC016 (line from a melanoma biopsy)
CBRC017 = tested on: CBRC017 (line from a melanoma biopsy)
CBRC034 = tested on: CBRC034 (line from a melanoma biopsy)
COLO792 = tested on: COLO792
COLO800 = tested on: COLO800
COLO829 = tested on: COLO829
G361 = tested on: G361
IPC-298 = tested on: IPC-298
IST-MEL1 = tested on: IST-MEL1
LB2518-MEL = tested on: LB2518-MEL
LOXIMVI = tested on: LOXIMVI
MEL-HO = tested on: MEL-HO

Structure (SMILES) | cleaved PARP positive nuclei fraction (501Mel) [%] | cleaved PARP positive nuclei fraction (A101D) [%] | cleaved PARP positive nuclei fraction (A2058) [%] | cleaved PARP positive nuclei fraction (A375) [%] | cleaved PARP positive nuclei fraction (C32) [%] | cleaved PARP positive nuclei fraction (CBRC008) [%] | cleaved PARP positive nuclei fraction (CBRC014) [%] | cleaved PARP positive nuclei fraction (CBRC016) [%] | cleaved PARP positive nuclei fraction (CBRC017) [%] | cleaved PARP positive nuclei fraction (CBRC034) [%] | cleaved PARP positive nuclei fraction (COLO792) [%] | cleaved PARP positive nuclei fraction (COLO800) [%] | cleaved PARP positive nuclei fraction (COLO829) [%] | cleaved PARP positive nuclei fraction (G361) [%] | cleaved PARP positive nuclei fraction (IPC-298) [%] | cleaved PARP positive nuclei fraction (IST-MEL1) [%] | cleaved PARP positive nuclei fraction (LB2518-MEL) [%] | cleaved PARP positive nuclei fraction (LOXIMVI) [%] | cleaved PARP positive nuclei fraction (MEL-HO) [%]
CS(=O)(=O)c1ccc(C(=O)Nc2ccc(Cl)c(-c3ccccn3)c2)c(Cl)c1 [vismodegib] + Cc1nc(Nc2ncc(C(=O)Nc3c(C)cccc3Cl)s2)cc(N2CCN(CCO)CC2)n1 [dasatanib] (first compound 1 µM, partner dose 0.004 µM) | 89.7 | 33.7 | 84.7 | 223 | 86.4 | 54.7 | 128 | 97.8 | 78.8 | 63.4 | 122 | 127 | 119 | 124 | 83.9 | 128 | 89.3 | 172 | 42.4
Cn1cnc2c(F)c(Nc3ccc(Br)cc3Cl)c(C(=O)NOCCO)cc21 [selumetinib] + CN1CCN(c2ccc3nc(-c4c(N)c5c(F)cccc5[nH]c4=O)[nH]c3c2)CC1 [Dovitinib] (first compound 0.015 µM, partner dose 0.1 µM) | 2160 | 43.7 | 181 | 244 | 87.8 | 127 | 93.4 | 67.2 | 133 | 123 | 108 | 95.8 | 130 | 111 | 69.2 | 65 | 372 | 77.1 | 492
CC(=O)O[C@@]12CO[C@@H]1C[C@H](O)[C@@]1(C)C(=O)[C@H](O)C3=C(C)[C@@H](OC(=O)[C@H](O)[C@@H](NC(=O)OC(C)(C)C)c4ccccc4)C[C@@](O)([C@@H](OC(=O)c4ccccc4)[C@H]21)C3(C)C [Docetaxel] + C=CCNC1=C2C[C@@H](C)C[C@H](OC)[C@H](O)[C@@H](C)/C=C(\C)[C@H](OC(N)=O)[C@@H](OC)/C=C\C=C(/C)C(=O)NC(=CC1=O)C2=O [Tanespimycin] (first compound 0.0001 µM, partner dose 0.002 µM) | 351 | 89.6 | 3160 | 3680 | 85.2 | 150 | 162 | 194 | 187 | 78.3 | 477 | 262 | 124 | 433 | 193 | 91 | 189 | 180 | 54.8
CCN(CC)CCNC(=O)c1c(C)[nH]c(/C=C2\C(=O)Nc3ccc(F)cc32)c1C [sunitinib] + CC(C)C[C@H](NC(=O)[C@H](Cc1ccccc1)NC(=O)c1cnccn1)B(O)O [Bortezomib] (first compound 0.4 µM, partner dose 0.001 µM) | 770 | 74 | 76.5 | 152 | 78.8 | 178 | 146 | 145 | 104 | 78.9 | 92 | 101 | 112 | 460 | 95.1 | 81.7 | 299 | 27.1 | 168
NC(=O)c1ccc(N(C(N)=O)c2c(F)cccc2F)nc1-c1ccc(F)cc1F + Clc1ccc(Nc2nnc(Cc3ccncc3)c3ccccc23)cc1 [vatalanib] (first compound 0.4 µM, partner dose 2 µM) | 104 | 112 | 97.7 | 193 | 72.4 | 64.7 | 102 | 110 | 87.5 | 26.7 | 64 | 102 | 97.9 | 44.8 | 46.3 | 65.6 | 98.5 | 99.9 | 81.8
CCN(CC)CCNC(=O)c1c(C)[nH]c(/C=C2\C(=O)Nc3ccc(F)cc32)c1C [sunitinib] + C=CCNC1=C2C[C@@H](C)C[C@H](OC)[C@H](O)[C@@H](C)/C=C(\C)[C@H](OC(N)=O)[C@@H](OC)/C=C\C=C(/C)C(=O)NC(=CC1=O)C2=O [Tanespimycin] (first compound 0.4 µM, partner dose 0.002 µM) | 862 | 105 | 264 | 84.6 | 243 | 72.7 | 85.6 | 47.8 | 102 | 61 | 80.5 | 147 | 73.5 | 103 | 88.8 | 119 | 94.4 | 119 | 508
CCCCCCCCc1ccc(CCC(N)(CO)CO)cc1 [fingolimod] + OCc1c[nH]c2ccccc12 [Indole-3-carbinol] (first compound 2 µM, partner dose 0.8 µM) | 496 | 54.5 | 137 | 553 | 78.4 | 54.6 | 175 | 32.5 | 201 | 812 | 114 | 233 | 110 | 127 | 90.4 | 141 | 235 | 131 | 33.4
COc1ccc(C2=N[C@@H](c3ccc(Cl)cc3)[C@@H](c3ccc(Cl)cc3)N2C(=O)N2CCNC(=O)C2)c(OC(C)C)c1 [Nutlin-3] + CS(=O)(=O)CCNCc1ccc(-c2ccc3ncnc(Nc4ccc(OCc5cccc(F)c5)c(Cl)c4)c3c2)o1 [lapatinib] (first compound 0.1 µM, partner dose 0.8 µM) | 44.6 | 47.4 | 94.2 | 64.2 | 67.8 | 134 | 107 | 20.4 | 103 | 133 | 126 | 60.6 | 46.9 | 101 | 91.7 | 138 | 53.7 | 35.3 | 37.4
CS(=O)(=O)c1ccc(C(=O)Nc2ccc(Cl)c(-c3ccccn3)c2)c(Cl)c1 [vismodegib] + O=C(O)[C@@H]1[O][Sb](=[O])([O][Sb]2(=[O])[O][C@H]([C@H](O)CO)[C@H](O)[C@H](C(=O)O)[O]2)[O][C@H]([C@H](O)CO)[C@@H]1O [stibogluconate] (first compound 1 µM, partner dose 2 µM) | 64.2 | 81.3 | 118 | 91.2 | 79.3 | 152 | 94.6 | 60.9 | 112 | 108 | 143 | 46.5 | 43.7 | 78.6 | 44.7 | 90.4 | 89.5 | 78.5 | 51.8
C[C@@H](N)c1ccc(C(=O)Nc2ccnc3[nH]ccc23)cc1 + C[C@]1(c2nc3c(C(N)=O)cccc3[nH]2)CCCN1 [Veliparib] (first compound 0.4 µM, partner dose 1.4 µM) | 77.6 | 48.8 | 213 | 328 | 112 | 43.5 | 87.5 | 49.5 | 79.2 | 47.7 | 219 | 119 | 148 | 154 | 259 | 170 | 135 | 469 | 179
CC1(C)CCC(c2ccc(Cl)cc2)=C(CN2CCN(c3ccc(C(=O)NS(=O)(=O)c4ccc(N[C@H](CCN5CCOCC5)CSc5ccccc5)c(S(=O)(=O)C(F)(F)F)c4)cc3)CC2)C1 + O=C(O)[C@@H]1[O][Sb](=[O])([O][Sb]2(=[O])[O][C@H]([C@H](O)CO)[C@H](O)[C@H](C(=O)O)[O]2)[O][C@H]([C@H](O)CO)[C@@H]1O [stibogluconate] (first compound 0.4 µM, partner dose 2 µM) | 81 | 310 | 129 | 441 | 167 | 836 | 402 | 1610 | 332 | 335 | 314 | 37 | 87.8 | 162 | 132 | 83.5 | 86.6 | 414 | 151
COc1ccc(C2=N[C@@H](c3ccc(Cl)cc3)[C@@H](c3ccc(Cl)cc3)N2C(=O)N2CCNC(=O)C2)c(OC(C)C)c1 [Nutlin-3] + CS(=O)(=O)c1ccc(C(=O)Nc2ccc(Cl)c(-c3ccccn3)c2)c(Cl)c1 [vismodegib] (first compound 0.1 µM, partner dose 1 µM) | 155 | 235 | 105 | 299 | 82 | 115 | 89.2 | 77 | 131 | 63 | 52.4 | 87.6 | 105 | 128 | 46.3 | 118 | 142 | 171 | 112
NC1(c2ccc(-c3nc4ccn5c(=O)[nH]nc5c4cc3-c3ccccc3)cc2)CCC1 + CNC(=O)c1cc(Oc2ccc(NC(=O)Nc3ccc(Cl)c(C(F)(F)F)c3)cc2)ccn1 [sorafenib] (first compound 0.4 µM, partner dose 0.4 µM) | 163 | 184 | 94.5 | 50.5 | 67.1 | 95.7 | 95.1 | 143 | 87.6 | 38.4 | 97.3 | 115 | 97.1 | 64.2 | 121 | 63.1 | 163 | 72.5 | 106
CN(c1ncccc1CNc1nc(Nc2ccc3c(c2)CC(=O)N3)ncc1C(F)(F)F)S(C)(=O)=O + OCc1c[nH]c2ccccc12 [Indole-3-carbinol] (first compound 0.08 µM, partner dose 0.8 µM) | 122 | 168 | 304 | 220 | 188 | 88.4 | 79.6 | 62.5 | 92.9 | 184 | 104 | 48.9 | 252 | 159 | 146 | 132 | 99.8 | 38.7 | 168
CN(c1ncccc1CNc1nc(Nc2ccc3c(c2)CC(=O)N3)ncc1C(F)(F)F)S(C)(=O)=O + Cc1cc(Nc2cc(N3CCN(C)CC3)nc(/C=C/c3ccccc3)n2)n[nH]1 [ENMD2076] (first compound 0.08 µM, partner dose 0.04 µM) | 85 | 51.8 | 113 | 28.7 | 440 | 33.2 | 96.9 | 147 | 94 | 242 | 186 | 227 | 177 | 109 | 117 | 92.3 | 96.4 | 65.4 | 123

Part of the list above, tab-delimited:
Structure (SMILES)	cleaved PARP positive nuclei fraction (501Mel) [%]	cleaved PARP positive nuclei fraction (A101D) [%]	cleaved PARP positive nuclei fraction (A2058) [%]	cleaved PARP positive nuclei fraction (A375) [%]	cleaved PARP positive nuclei fraction (C32) [%]	cleaved PARP positive nuclei fraction (CBRC008) [%]	cleaved PARP positive nuclei fraction (CBRC014) [%]	cleaved PARP positive nuclei fraction (CBRC016) [%]	cleaved PARP positive nuclei fraction (CBRC017) [%]	cleaved PARP positive nuclei fraction (CBRC034) [%]	cleaved PARP positive nuclei fraction (COLO792) [%]	cleaved PARP positive nuclei fraction (COLO800) [%]	cleaved PARP positive nuclei fraction (COLO829) [%]	cleaved PARP positive nuclei fraction (G361) [%]	cleaved PARP positive nuclei fraction (IPC-298) [%]	cleaved PARP positive nuclei fraction (IST-MEL1) [%]	cleaved PARP positive nuclei fraction (LB2518-MEL) [%]	cleaved PARP positive nuclei fraction (LOXIMVI) [%]	cleaved PARP positive nuclei fraction (MEL-HO) [%]
CC(=O)O[C@@]12CO[C@@H]1C[C@H](O)[C@@]1(C)C(=O)[C@H](O)C3=C(C)[C@@H](OC(=O)[C@H](O)[C@@H](NC(=O)OC(C)(C)C)c4ccccc4)C[C@@](O)([C@@H](OC(=O)c4ccccc4)[C@H]21)C3(C)C [Docetaxel] + C=CCNC1=C2C[C@@H](C)C[C@H](OC)[C@H](O)[C@@H](C)/C=C(\C)[C@H](OC(N)=O)[C@@H](OC)/C=C\C=C(/C)C(=O)NC(=CC1=O)C2=O [Tanespimycin] (first compound 0.0001 µM, partner dose 0.002 µM)	351	89.6	3160	3680	85.2	150	162	194	187	78.3	477	262	124	433	193	91	189	180	54.8
CCN(CC)CCNC(=O)c1c(C)[nH]c(/C=C2\C(=O)Nc3ccc(F)cc32)c1C [sunitinib] + CC(C)C[C@H](NC(=O)[C@H](Cc1ccccc1)NC(=O)c1cnccn1)B(O)O [Bortezomib] (first compound 0.4 µM, partner dose 0.001 µM)	770	74	76.5	152	78.8	178	146	145	104	78.9	92	101	112	460	95.1	81.7	299	27.1	168
C[C@@H](N)c1ccc(C(=O)Nc2ccnc3[nH]ccc23)cc1 + C[C@]1(c2nc3c(C(N)=O)cccc3[nH]2)CCCN1 [Veliparib] (first compound 0.4 µM, partner dose 1.4 µM)	77.6	48.8	213	328	112	43.5	87.5	49.5	79.2	47.7	219	119	148	154	259	170	135	469	179
